Results are given in words; binding and its absence hold for the method and conditions named. Binding seen in cells or lysates may run through a third protein. Some binding calls cover weakened binding; strength is not graded here.

Protein sequences, listed by entry. Tags and fused reporters are not part of them.
UniProt Q02248: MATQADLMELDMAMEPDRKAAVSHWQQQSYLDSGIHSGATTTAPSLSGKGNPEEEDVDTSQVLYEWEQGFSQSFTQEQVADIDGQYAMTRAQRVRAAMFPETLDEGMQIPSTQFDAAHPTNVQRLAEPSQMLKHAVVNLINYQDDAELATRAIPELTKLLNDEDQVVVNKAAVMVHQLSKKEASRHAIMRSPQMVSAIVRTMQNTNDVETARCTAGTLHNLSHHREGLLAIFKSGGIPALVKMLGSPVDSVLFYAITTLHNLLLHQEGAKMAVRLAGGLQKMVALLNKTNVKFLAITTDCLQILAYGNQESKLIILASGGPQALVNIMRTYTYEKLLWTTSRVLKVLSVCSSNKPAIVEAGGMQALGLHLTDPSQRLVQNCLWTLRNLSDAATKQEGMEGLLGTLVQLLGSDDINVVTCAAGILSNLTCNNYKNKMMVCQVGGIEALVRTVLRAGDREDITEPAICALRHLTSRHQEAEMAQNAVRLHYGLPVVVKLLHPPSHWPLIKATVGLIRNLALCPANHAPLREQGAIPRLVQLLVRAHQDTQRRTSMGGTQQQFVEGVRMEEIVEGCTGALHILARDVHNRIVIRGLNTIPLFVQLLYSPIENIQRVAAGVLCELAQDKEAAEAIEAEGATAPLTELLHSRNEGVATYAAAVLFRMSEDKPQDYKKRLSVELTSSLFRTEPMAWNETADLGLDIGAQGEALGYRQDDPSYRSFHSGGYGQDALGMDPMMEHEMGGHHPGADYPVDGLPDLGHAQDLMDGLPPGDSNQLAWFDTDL

The target in this assay is T1, vinculin (mouse (endogenous in C2C12)) (UniProt Q64727).
T1 sequence: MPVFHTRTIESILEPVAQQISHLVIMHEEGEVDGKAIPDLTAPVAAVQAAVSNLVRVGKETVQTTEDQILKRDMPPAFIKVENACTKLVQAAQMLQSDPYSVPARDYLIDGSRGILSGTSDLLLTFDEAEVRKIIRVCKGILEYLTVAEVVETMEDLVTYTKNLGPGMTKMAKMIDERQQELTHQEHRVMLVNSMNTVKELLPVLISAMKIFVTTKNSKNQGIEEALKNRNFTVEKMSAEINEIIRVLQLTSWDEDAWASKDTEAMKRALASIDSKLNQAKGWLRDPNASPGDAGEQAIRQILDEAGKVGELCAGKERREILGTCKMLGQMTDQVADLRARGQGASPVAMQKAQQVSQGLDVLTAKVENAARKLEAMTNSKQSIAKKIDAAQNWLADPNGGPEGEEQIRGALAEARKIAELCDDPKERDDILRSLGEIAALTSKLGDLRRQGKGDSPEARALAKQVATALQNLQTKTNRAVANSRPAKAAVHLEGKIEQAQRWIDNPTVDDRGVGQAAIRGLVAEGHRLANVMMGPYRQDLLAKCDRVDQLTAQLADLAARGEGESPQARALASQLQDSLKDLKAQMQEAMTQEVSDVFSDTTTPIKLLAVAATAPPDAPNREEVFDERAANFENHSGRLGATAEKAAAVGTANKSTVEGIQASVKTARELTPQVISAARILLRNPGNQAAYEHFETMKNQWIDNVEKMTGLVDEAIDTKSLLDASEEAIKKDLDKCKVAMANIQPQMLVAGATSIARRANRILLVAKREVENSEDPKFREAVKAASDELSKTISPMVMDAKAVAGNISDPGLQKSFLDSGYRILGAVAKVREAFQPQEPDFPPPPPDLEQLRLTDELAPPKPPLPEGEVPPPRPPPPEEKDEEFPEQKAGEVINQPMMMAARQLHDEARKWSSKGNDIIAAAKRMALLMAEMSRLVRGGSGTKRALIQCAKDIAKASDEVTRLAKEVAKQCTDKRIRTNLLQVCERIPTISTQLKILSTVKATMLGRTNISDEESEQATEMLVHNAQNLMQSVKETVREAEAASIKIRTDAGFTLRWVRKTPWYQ
Nature of the assay: co-IP.

Consider β-catenin (from UniProt Q02248 1-781), for which the binding entry is on record as “binds”.

(Values after publication doi:10.1101/2024.02.21.578728.)
